Assay: competitive radioisotopic assay of folate in whole serum
Design: species or system human

SMILES	assay sensitivity [picograms]	effect on the assay (agent present in the serum sample)
CN1c2c(nc(N)[nH]c2=O)NCC1CNc1ccc(C(=O)N[C@@H](CCC(=O)O)C(=O)O)cc1 (some centres unmarked) [5CH3 FH4, d,1,5-methyltetrahydrofolic acid]	25	–
CN(Cc1cnc2nc(N)nc(N)c2n1)c1ccc(C(=O)N[C@@H](CCC(=O)O)C(=O)O)cc1 [Methotrexate, 4-(amino-N^10-methylpteroylglutamic acid)]	–	unaffected
